Data published in the supplement of paper PMC12067093, “Discovery and optimisation of a covalent ligand for TRIM25 and its application to targeted protein ubiquitination” (Chemical Science, 2025).
Some of the results follow.

By UniProt entry, the sequences of proteins in these tests, tags left out. Where a name states a change or a piece, a line headed by the entry shows the natural chain unless it says otherwise.
UniProt Q9BV19: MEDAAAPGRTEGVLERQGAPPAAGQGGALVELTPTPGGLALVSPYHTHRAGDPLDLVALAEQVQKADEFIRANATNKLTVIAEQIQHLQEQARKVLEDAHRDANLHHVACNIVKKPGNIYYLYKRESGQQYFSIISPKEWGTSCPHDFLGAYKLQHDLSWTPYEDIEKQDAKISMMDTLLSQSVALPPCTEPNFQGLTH
UniProt Q86VP6: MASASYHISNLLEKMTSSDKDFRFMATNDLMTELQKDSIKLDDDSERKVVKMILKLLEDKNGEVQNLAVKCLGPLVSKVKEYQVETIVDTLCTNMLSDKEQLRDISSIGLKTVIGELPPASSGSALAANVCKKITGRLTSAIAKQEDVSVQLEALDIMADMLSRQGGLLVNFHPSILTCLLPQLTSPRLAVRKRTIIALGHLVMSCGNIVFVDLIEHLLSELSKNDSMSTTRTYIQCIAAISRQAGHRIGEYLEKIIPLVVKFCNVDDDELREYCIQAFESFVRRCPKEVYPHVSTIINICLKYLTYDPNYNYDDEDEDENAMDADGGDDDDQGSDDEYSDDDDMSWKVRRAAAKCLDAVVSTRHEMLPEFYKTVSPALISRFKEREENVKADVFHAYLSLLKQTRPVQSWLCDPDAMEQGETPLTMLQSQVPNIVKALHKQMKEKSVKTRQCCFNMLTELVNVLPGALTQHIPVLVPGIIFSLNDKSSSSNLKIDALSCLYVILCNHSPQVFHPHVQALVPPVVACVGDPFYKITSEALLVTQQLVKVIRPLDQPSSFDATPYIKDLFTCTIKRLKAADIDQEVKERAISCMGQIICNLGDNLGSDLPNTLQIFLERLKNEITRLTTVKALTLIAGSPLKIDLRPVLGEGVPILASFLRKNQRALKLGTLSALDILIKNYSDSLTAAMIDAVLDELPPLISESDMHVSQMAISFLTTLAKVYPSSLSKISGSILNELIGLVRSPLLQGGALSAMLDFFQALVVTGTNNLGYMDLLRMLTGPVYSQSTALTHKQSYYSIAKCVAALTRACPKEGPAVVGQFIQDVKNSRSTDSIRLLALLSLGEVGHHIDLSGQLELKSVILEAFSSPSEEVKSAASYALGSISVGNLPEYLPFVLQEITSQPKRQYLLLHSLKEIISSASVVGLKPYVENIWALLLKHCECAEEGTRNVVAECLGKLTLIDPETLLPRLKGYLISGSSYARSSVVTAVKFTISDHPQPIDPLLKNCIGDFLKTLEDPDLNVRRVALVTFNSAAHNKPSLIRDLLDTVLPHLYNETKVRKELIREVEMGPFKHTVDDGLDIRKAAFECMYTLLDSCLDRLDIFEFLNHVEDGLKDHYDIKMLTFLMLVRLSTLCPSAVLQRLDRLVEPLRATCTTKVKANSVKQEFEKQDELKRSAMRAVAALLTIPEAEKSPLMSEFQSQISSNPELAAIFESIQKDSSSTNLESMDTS
UniProt O95696: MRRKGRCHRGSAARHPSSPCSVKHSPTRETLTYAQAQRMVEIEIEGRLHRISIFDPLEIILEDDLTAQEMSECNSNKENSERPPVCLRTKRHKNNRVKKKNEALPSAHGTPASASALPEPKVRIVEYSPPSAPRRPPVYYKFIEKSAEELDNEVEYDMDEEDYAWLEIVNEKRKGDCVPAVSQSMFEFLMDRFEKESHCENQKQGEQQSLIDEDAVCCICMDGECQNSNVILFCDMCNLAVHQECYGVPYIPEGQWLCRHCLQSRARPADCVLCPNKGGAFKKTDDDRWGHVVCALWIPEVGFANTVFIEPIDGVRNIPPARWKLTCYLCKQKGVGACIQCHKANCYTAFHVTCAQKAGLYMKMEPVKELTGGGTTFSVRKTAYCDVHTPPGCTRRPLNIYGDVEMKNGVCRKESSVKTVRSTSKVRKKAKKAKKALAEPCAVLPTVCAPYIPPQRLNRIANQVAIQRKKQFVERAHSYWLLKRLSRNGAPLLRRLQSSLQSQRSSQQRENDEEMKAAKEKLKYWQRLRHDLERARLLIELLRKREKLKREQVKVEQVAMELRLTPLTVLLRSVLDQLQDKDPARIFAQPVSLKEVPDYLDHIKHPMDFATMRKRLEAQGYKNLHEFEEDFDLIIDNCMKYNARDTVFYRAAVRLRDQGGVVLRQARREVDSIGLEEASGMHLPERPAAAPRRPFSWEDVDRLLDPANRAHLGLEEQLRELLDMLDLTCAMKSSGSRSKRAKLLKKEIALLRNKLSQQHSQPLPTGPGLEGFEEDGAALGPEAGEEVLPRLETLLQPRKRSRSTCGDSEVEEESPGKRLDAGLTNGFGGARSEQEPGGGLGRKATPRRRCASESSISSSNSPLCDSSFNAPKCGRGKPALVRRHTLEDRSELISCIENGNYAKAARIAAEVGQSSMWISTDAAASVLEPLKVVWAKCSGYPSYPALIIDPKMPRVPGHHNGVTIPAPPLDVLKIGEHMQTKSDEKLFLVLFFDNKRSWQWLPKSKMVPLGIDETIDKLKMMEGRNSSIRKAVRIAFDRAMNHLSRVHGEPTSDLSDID
UniProt Q7Z569: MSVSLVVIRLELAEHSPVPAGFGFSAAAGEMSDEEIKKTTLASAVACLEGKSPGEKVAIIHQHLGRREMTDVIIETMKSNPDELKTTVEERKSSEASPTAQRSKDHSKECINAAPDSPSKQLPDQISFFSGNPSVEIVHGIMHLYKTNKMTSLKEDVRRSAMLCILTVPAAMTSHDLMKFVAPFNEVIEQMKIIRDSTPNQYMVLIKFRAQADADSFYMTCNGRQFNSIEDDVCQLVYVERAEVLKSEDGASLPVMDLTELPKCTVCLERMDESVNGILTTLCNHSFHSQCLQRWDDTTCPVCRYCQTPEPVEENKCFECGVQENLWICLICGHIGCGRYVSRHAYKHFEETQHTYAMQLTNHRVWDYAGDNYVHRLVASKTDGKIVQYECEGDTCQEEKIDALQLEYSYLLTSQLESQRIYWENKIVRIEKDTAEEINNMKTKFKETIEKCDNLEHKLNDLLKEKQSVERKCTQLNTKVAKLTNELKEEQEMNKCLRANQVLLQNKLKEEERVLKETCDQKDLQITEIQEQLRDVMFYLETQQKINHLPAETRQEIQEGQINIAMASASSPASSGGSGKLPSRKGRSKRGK
UniProt Q9H0W9: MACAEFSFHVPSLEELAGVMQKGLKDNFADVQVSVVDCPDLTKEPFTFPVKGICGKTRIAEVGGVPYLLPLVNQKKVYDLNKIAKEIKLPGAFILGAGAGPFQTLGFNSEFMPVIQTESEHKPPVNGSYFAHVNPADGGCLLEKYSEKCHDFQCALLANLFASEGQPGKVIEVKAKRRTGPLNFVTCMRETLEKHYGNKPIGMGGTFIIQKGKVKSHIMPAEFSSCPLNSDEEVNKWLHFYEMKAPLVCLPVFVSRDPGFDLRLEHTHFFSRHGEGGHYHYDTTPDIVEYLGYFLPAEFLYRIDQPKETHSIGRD
UniProt P41223: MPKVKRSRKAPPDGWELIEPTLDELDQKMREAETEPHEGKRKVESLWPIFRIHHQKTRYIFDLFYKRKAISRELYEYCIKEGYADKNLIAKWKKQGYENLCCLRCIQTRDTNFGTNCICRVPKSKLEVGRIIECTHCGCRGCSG
UniProt Q86YS7: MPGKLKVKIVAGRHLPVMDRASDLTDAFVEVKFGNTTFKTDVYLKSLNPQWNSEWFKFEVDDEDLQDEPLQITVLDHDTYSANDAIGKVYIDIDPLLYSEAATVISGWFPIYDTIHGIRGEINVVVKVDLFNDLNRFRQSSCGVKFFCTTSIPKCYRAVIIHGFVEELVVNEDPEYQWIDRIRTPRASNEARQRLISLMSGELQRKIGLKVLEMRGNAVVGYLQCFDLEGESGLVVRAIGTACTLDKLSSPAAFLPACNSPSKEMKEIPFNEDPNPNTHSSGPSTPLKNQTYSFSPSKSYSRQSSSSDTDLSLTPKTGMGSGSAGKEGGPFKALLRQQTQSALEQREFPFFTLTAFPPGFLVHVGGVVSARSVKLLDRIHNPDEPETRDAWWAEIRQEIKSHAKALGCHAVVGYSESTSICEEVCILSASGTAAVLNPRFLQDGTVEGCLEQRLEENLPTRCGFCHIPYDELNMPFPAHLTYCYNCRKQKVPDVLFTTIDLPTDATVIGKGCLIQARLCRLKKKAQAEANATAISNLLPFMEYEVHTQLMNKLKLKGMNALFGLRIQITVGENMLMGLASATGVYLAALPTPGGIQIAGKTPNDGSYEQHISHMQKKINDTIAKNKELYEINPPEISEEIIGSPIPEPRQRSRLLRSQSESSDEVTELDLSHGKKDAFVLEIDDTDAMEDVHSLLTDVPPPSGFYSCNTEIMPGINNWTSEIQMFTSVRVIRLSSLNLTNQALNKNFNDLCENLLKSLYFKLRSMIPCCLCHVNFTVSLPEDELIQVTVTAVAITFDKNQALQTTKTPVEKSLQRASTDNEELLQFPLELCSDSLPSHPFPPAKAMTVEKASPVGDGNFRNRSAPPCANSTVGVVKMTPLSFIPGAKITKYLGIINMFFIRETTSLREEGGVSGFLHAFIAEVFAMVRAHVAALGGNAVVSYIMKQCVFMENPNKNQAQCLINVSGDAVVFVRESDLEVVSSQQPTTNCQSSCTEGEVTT
UniProt P46736, whole entry, looked up: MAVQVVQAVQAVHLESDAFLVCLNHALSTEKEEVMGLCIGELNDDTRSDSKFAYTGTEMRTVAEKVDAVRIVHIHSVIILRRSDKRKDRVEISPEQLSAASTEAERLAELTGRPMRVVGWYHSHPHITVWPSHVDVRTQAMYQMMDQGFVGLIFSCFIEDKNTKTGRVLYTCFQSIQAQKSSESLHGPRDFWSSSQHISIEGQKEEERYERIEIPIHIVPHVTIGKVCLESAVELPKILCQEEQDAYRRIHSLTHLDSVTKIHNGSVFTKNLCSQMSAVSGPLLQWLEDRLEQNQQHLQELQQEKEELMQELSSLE
UniProt O14523: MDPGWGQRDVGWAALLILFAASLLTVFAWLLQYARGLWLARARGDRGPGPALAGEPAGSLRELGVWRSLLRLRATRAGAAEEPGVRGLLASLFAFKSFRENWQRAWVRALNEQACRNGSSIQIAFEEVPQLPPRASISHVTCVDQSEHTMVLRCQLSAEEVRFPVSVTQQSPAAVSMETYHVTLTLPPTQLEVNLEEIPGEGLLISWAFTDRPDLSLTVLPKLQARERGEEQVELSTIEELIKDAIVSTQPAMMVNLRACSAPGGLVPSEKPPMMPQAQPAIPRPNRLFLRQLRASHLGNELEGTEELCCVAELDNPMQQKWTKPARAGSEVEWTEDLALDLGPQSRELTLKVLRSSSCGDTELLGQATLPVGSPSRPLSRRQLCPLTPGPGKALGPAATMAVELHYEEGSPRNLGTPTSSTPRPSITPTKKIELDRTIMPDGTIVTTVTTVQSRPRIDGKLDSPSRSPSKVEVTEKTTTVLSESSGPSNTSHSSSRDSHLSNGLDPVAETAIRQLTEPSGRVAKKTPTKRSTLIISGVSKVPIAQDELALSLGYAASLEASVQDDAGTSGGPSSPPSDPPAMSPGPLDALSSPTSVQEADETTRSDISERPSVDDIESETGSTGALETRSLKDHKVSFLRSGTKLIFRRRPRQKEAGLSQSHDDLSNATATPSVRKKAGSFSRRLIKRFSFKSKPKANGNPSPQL
UniProt Q8TCD1: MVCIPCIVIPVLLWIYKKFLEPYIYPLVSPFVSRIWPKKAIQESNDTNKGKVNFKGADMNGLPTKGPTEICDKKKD

Compound: CC1Cc2ccccc2N1C(=O)C1CCCN(C1)C(=O)CCl (mixture of isomers) [TRIM25 ligand 11 (diastereomer mixture)]
Test: probe-labelled cysteine peptide fold change vs DMSO (competition) (log2 fold change); higher = less target engagement (more negative = stronger competition)
Conditions: THP-1, incubation time: 4 h
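Also: competitive chemoproteomic profiling in live THP-1 cells with an iodoacetamide desthiobiotin (IA-DTB) probe, comparing probe-labelled peptide intensities in compound-treated cells against DMSO-treated controls.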

Target | probe-labelled cysteine peptide fold change (10 µM) | probe-labelled cysteine peptide fold change (50 µM)
C1orf50_Q9BV19_189_ISMMDTLLSQSVALPPCTEPNFQGLTH (UniProt Q9BV19) | -0.116 | -0.171
BRAT1_Q6PJG6_289_ALSCLGPTHMGPLALGILK (UniProt Q6PJG6) | -0.0772 | 0.0172
BTBD10_Q9BSF8_239_CPDGISIPELR (UniProt Q9BSF8) | 0.19 | 0.0823
C16orf62_Q7Z3J2_614_HQQEPTKDPVILNALLHVCK (UniProt Q7Z3J2) | 0.122 | 0.337
C9orf64_Q5T6V5_170_FGGSFLNCVR (UniProt Q5T6V5) | 0.0334 | 0.145
C16orf62_Q7Z3J2_665_SMFCNLEPVLVQLIHSVNR (UniProt Q7Z3J2) | 0.0245 | 0.147
C6orf106_Q9H6K1_147_SLEPQEIADVSVQMCSPSR (UniProt Q9H6K1) | 0.0311 | 0.236
BRD7_Q9NPI1_338_LVNSQCEFER (UniProt Q9NPI1) | 0.143 | 0.253
CAMK2G_Q13555_549_WLNVHYHCSGAPAAPLQ (UniProt Q13555) | 0.238 | -0.121
C1orf123_Q9NWV4_102_TIVEFECR (UniProt Q9NWV4) | 0.0586 | 0.102
BPTF_Q12830_2697_MIVCNQVMK (UniProt Q12830) | -0.0687 | -0.135
BTN3A3_O00478_512_ILTLEPTALTICPIPK (UniProt O00478) | 0.101 | 0.188
BRD7_Q9NPI1_646_KTDVAECGPGGS (UniProt Q9NPI1) | -0.034 | -0.0794
C12orf29_Q8N999_302_CLFNHFLK (UniProt Q8N999) | -0.0449 | -0.289
CAMK2D_Q13557_116+127_EYYSEADASHCIQQILESVNHCHLNGIVHR (UniProt Q13557) | 0.0655 | -0.00265
CAND1_Q86VP6_92_EYQVETIVDTLCTNMLSDK (UniProt Q86VP6) | 0.0772 | 0.136
BTK_Q06187_154_YHPCFWIDGQYLCCSQTAK (UniProt Q06187) | -0.132 | -0.193
BRD1_O95696_638_NLHEFEEDFDLIIDNCMK (UniProt O95696) | 0.161 | -0.0554
CAND1_Q86VP6_71_CLGPLVSK (UniProt Q86VP6) | 0.134 | 0.162
BRD4_O60885_674_YVTSCLR (UniProt O60885) | -0.084 | 0.039
BRAT1_Q6PJG6_54_TVTEGESSVVLLQEHPCLVELLSHVLK (UniProt Q6PJG6) | 0.0628 | -0.125

Target | probe-labelled cysteine peptide fold change (10 µM) | probe-labelled cysteine peptide fold change (50 µM)
BRAP_Q7Z569_519_ETCDQK (UniProt Q7Z569) | -0.105 | -0.0062
BSDC1_Q9NW68_49_DLTEFTQVVQHDTACTIAATASVVK (UniProt Q9NW68) | 0.00715 | -0.279
CACNA1G_O43497_1019_CLALVSLGEHPELR (UniProt O43497) | 0.0446 | -0.0139
BRCA1_P38398_1251_HSTVATECLSK (UniProt P38398) | 0.0446 | -0.0577
BRAT1_Q6PJG6_513_LCHPCWEVR (UniProt Q6PJG6) | 0.0701 | -0.318
C11orf54_Q9H0W9_226_SHIMPAEFSSCPLNSDEEVNK (UniProt Q9H0W9) | 0.0685 | -0.13
CAND1_Q86VP6_802_CVAALTR (UniProt Q86VP6) | -0.00141 | 0.102
CAMSAP1_Q5T5Y3_947_EYSQHNGEDCGDAVSK (UniProt Q5T5Y3) | -0.0358 | -0.206
BUD31_P41223_137_IIECTHCGCR (UniProt P41223) | -0.108 | 0.0271
CALR_P27797_137_LFPNSLDQTDMHGDSEYNIMFGPDICGPGTK (UniProt P27797) | -0.102 | -0.224
C1QBP_Q07021_186_ALVLDCHYPEDEVGQEDEAESDIFSIR (UniProt Q07021) | -0.116 | 0.0508
C11orf54_Q9H0W9_149_CHDFQCALLANLFASEGQPGK (UniProt Q9H0W9) | -0.0371 | -0.162
CAD_P27708_1374_VTAVDWHFEEAVDGECPPQR (UniProt P27708) | 0.00695 | -0.0687
BUB1B_O60566_775_EYLICEDYK (UniProt O60566) | 0.272 | 0.268
C2CD5_Q86YS7_486_CGFCHIPYDELNMPFPAHLTYCYNCR (UniProt Q86YS7) | 0.141 | 0.0706
C11orf68_Q9H3H3_214_QVICVYTDDFTDR (UniProt Q9H3H3) | -0.0475 | -0.00703
C1orf50_Q9BV19_144_EWGTSCPHDFLGAYK (UniProt Q9BV19) | -0.0817 | 0.0435
C12orf10_Q9HB07_62_IGTHNGTFHCDEALACALLR (UniProt Q9HB07) | -0.0383 | -0.259
BRCC3_P46736_38_EEVMGLCIGELNDDTR (UniProt P46736) | -0.0467 | -0.117
C19orf54_Q5BKX5_226_DLVLQHLVTGHPLLIPYDEDFNHEPCQR (UniProt Q5BKX5) | 0.129 | -0.00339
C17orf75_Q9HAS0_296_FCEDWMQAFLNGAK (UniProt Q9HAS0) | 0.221 | 0.34

Target | probe-labelled cysteine peptide fold change (10 µM) | probe-labelled cysteine peptide fold change (50 µM)
C2CD2L_O14523_385_QLCPLTPGPGK (UniProt O14523) | -0.071 | -0.253
C16orf62_Q7Z3J2_925_HGCADTR (UniProt Q7Z3J2) | -0.191 | -0.133
BTAF1_O14981_1651_ILIFCQLK (UniProt O14981) | 0.0915 | 0.157
BTAF1_O14981_1626_QLLLDCGLGNGSTSESGTESVVAQHR (UniProt O14981) | 0.329 | 0.149
C7_P10643_743_RILPLTVCK (UniProt P10643) | 0.501 | 0.329
BTK_Q06187_63_ITCVETVVPEK (UniProt Q06187) | -0.046 | -0.00326
BTK_Q06187_506_DVCEAMEYLESK (UniProt Q06187) | 0.118 | 0.0518
C6orf120_Q7Z4R8_99_GDADLYVSASSLHPSFDDYELQSATCGPDAVSIPAHFR (UniProt Q7Z4R8) | 0.0909 | -0.109
BST1_Q10588_83_VALDKDPCSVLPSDYDLFINLSR (UniProt Q10588) | -0.0736 | -0.143
BTAF1_O14981_371_ETCAQTLGVVLK (UniProt O14981) | -0.0373 | -0.0212
C16orf62_Q7Z3J2_864_LCETVMAQILEHLK (UniProt Q7Z3J2) | -0.0664 | -0.045
CALR_P27797_105_HEQNIDCGGGYVK (UniProt P27797) | 0.00844 | -0.0654
BRD9_Q9H8M2_101_EHCDTEGEADDFDPGK (UniProt Q9H8M2) | -0.0969 | -0.0577
CAD_P27708_1501_EDFASGTAAALAGGITMVCAMPNTRPPIIDAPALALAQK (UniProt P27708) | 0.215 | 0.36
C3orf80_F5H4A9_177_SDPSCASEHEMR (UniProt F5H4A9) | 0.175 | -0.00987
C8orf33_Q9H7E9_21_AALGHLAGEAAAAPGPGTPCASR (UniProt Q9H7E9) | -0.136 | -0.197
BRAT1_Q6PJG6_265_DPIPAAHSFVDLLLCVAR (UniProt Q6PJG6) | -0.0702 | -0.00745
BRAP_Q7Z569_164_SAMLCILTVPAAMTSHDLMK (UniProt Q7Z569) | -0.176 | -0.0114
BST1_Q10588_144_VADFLSWCR (UniProt Q10588) | 0.0489 | 0.29
C5_P01031_1553_KQTACKPEIAYAYK (UniProt P01031) | 0.466 | 0.416
CAD_P27708_1613_SVHICHVAR (UniProt P27708) | -0.102 | 0.397

Target | probe-labelled cysteine peptide fold change (10 µM) | probe-labelled cysteine peptide fold change (50 µM)
BUD31_P41223_78_ELYEYCIK (UniProt P41223) | 0.0518 | -0.0462
BRD1_O95696_341_GVGACIQCHK (UniProt O95696) | 0.1 | 0.204
BRAT1_Q6PJG6_228_CQSPWTEALWVR (UniProt Q6PJG6) | 0.0375 | -0.434
CAMK2B_Q13554_561_ICDPGLTSFEPEALGNLVEGMDFHR (UniProt Q13554) | -0.106 | -0.149
C2CD2L_O14523_385_RQLCPLTPGPGK (UniProt O14523) | -0.00642 | -0.00325
CAND1_Q86VP6_571_DLFTCTIK (UniProt Q86VP6) | 0.116 | 0.0279
CAD_P27708_183_ILALDCGLK (UniProt P27708) | -0.0145 | 0.0144
C2CD5_Q86YS7_449_FLQDGTVEGCLEQR (UniProt Q86YS7) | 0.1 | -0.145
BRMS1_Q9HCU9_136_NKYECELQGAK (UniProt Q9HCU9) | -0.141 | -0.0151
BTAF1_O14981_1401_FNYCILDEGHVIK (UniProt O14981) | 0.0958 | 0.067
CACYBP_Q9HB71_154_VKTDTVLILCR (UniProt Q9HB71) | -0.282 | -0.221
CAMSAP1_Q5T5Y3_1507_CDANHYIILFR (UniProt Q5T5Y3) | -0.195 | 0.0522
BTAF1_O14981_1579_LCNHPALVLTPQHPEFK (UniProt O14981) | -0.0222 | 0.104
C18orf32_Q8TCD1_71_GPTEICDK (UniProt Q8TCD1) | -0.0577 | -0.0508
BUB1_O43683_698_LSQPAAGGVLTCEAELGVEACR (UniProt O43683) | -0.205 | 0.0685
BRCC3_P46736_240_ILCQEEQDAYR (UniProt P46736) | 0.133 | 0.0603
C7orf43_Q8WVR3_305_LPGTSGCFPCPLNALEEHNFLFQLR (UniProt Q8WVR3) | -0.113 | 0.0785
BRF1_Q92994_9_GCGGTDIELDAAR (UniProt Q92994) | 0.0987 | -0.26
